Paper PMC10572428, “Possibility of Using Different Calcium Compounds for the Manufacture of Fresh Acid Rennet Cheese from Goat’s Milk” (Foods, 2023)

Assays:
[1] = Concentrations of macro- and micro-elements in cheese (ICP-OES); parameters: species or system goat; conditions: 20 mg of Ca
[2] = cited from earlier work

In the case of `CC(O)C(=O)[O-].CC(O)C(=O)[O-].[Ca+2]` (stereo not drawn) [Lactate, calcium lactate], the “increase in phosphorus content of cheese” value [1] was 4.5 mg per 100 g.

In the case of `NCC(=O)[O-].NCC(=O)[O-].[Ca+2]` [bisglycinate], the “increase in calcium content of cheese compared to the control” value ([2]; 40 mg Ca 100 g^−1 of milk) is given as 99.24 mg.

For `O=C([O-])CC(O)(CC(=O)[O-])C(=O)[O-].O=C([O-])CC(O)(CC(=O)[O-])C(=O)[O-].[Ca+2].[Ca+2].[Ca+2]` [calcium citrate], the “increase in calcium content of acid rennet cheese compared to the control sample” value ([2]; 20 mg Ca 100 g^−1 of milk) is given as 26.62 mg.
